# At least one structure is not confirmed: it was looked up by name or label, or the drawing left a doubt.
# Experiments:
# HIV = settings: in vitro systems; cited from earlier work
# HIV-1 (HTLV-IIIB) = experiment: Anti-virus activity of AC-series preparations on infected cells (syncitia, p24 antigen); type: cell-based
# Protocol: Antiviral activity of these preparations toward HIV-1 was studied using as the model, cellular cultures infected with HIV-1.
# The testing of anti-virus activity was conducted using two types of interwoven cellar lines sensitive to infecting by AIDS-virus--the MT-4 cells and Yurkat tat III cells. The cells were harvested in suspension form in a PPMI 1640 medium containing 15% of fetal serum with exposure to the atmosphere characterized by 5% CO2 content, 98% humidity level and 37% C. temperature level. The cells were infected by the HTLV-IIIB culture of AIDS-1 virus in accordance with WHO recommendations for conducting scientific researches on testing pharmaceutical preparations. The methods used for determining anti-virus activity of the tested preparations are recommended for similar purposes by the WHO Reference Laboratory (Belgium) headed by Professor de Clerk who is an internationally recognized leading expert in synthesis and screening chemical preparations for AIDs treatment (I. Antimicrob. Chemoter., 1989, No. 23, Suppl. A 35-46). The work was done at the Virology Institute of the U.S.S.R. Academy of Medical Sciences on MT-4 human lymphoid cells and on Yurkat tat III cells as indicated above.
# The cells were incubated for 6 days under similar conditions and thereafter their viability was determined as well as formation of virus-induced syncytia and virus antigen (p24) using immunofermental analysis. The formation of syncytia, huge cell conglomerates, is one of the HIV reproduction characteristics. The formation of the syncytia is connected with the interaction of gp120 virus protein, situated on the membranes of the infected cells, and CD4 receptor, situated on the membranes of non-infected cells. As a result of this interaction, the merging of nuclear membranes occurs and a cell culture lacking immune ability, consisting of many cells nuclei, is formed. The viable cells were counted using thripane blue dye-stuff in the Goryayev chamber.
compound,measurement,setting,value
"Cc1cn([C@H]2C[C@H](N=[N+]=[N-])[C@@H](CO)O2)c(=O)[nH]c1=O [AZT, azidothymidine]",stopping of HIV development,HIV,fails to completely stop the development of HIV
same,suppression of AIDS-1 virus development,HIV-1 (HTLV-IIIB); 1.0 mcm/ml,completely suppresses the AIDS-1 virus development
same,amount of syncytia,"HIV-1 (HTLV-IIIB); 1.0 mcm/ml, virus control 100%",virus-induced syncitia absent
same,number of syncitia,"HIV-1 (HTLV-IIIB); Table 2, 270 mkg/ml, 6th day",none
